The values below come from the supplement of paper PMC12872613.

Counter-ions that a name gives are not always drawn. Some of the results follow. Rule as the data show it: active = 0.7 or more and inactive = the rest. Single values are uncertain, as repeats are few or missing.

For this experiment, the system named is MiaPaCa-2 CLSA-25. In words: cell death relative to DMSO vehicle (fraction); higher = more cytotoxic. As to conditions: 5 µM; treatment time 48 h; medium cystine 25 µM.
Regarding `O=C(O)/C=C/c1ccc(Cn2ccnc2)cc1` [Ozagrel], the cell death is inactive: 0.205.
With `C[C@H](CCC(=O)O)[C@H]1CC[C@H]2[C@@H]3CC[C@@H]4C[C@H](O)CC[C@]4(C)[C@H]3C[C@H](O)[C@]12C` [Deoxycholic acid] the figure was inactive: 0.0998.
With `COc1cc(OC)c(CCC(=O)c2ccc(O)cc2)c(OC)c1` [Loureirin B] the figure was inactive: 0.199.
The value for `CN(C)C(=O)Nc1cccc(-c2ccc(N(C)C)cc2)c1` [Atglistatin] was inactive: 0.138; that for `Clc1ccc(Cn2c(CN3CCCC3)nc3ccccc32)cc1` [Clemizole hydrochloride] was inactive: 0.212; that for `CCCCCCCC(=O)N[C@H](CN1CCCC1)[C@H](O)c1ccc2c(c1)OCCO2` [Eliglustat] was inactive: 0.0762.
`CC(/C=C1\SC(=S)N(CC(=O)O)C1=O)=C\c1ccccc1` [Epalrestat]: the cell death is inactive: 0.424.
